PMC3820802, “Activin Signaling Targeted by Insulin/dFOXO Regulates Aging and Muscle Proteostasis in Drosophila”

Molecular target: T1, Smox MH1 DNA-binding domain (UniProt O96660)
T1 sequence (looked up): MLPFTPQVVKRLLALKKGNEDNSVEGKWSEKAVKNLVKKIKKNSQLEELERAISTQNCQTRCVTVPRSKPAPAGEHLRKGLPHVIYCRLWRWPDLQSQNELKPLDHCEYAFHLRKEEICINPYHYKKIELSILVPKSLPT
Assay: competition with a labelled probe
Conditions: EMSA, cold competitor vs labeled N1, retained some competitive ability; 10 mM Tris-HCl pH 7.5, 150 mM KCl, 5 mM MgCl2, 10 ng/uL poly(dI-dC), ~50 ng probe, 20 ug protein in 10 uL, room temperature 20 min; 0.8% agarose, 0.5x TBE; recombinant protein; residues 1-140; label: unlabeled competitor

“CATATTAGACAGATACCATT (double strand) [Atg8a-Mut4]”: binds more weakly.

“CATATTAGGGAGACACCATT (double strand) [Atg8a-Mut1]”: binds more weakly.

Weaker means in comparison with the reference protein, sequence or condition of that experiment. Protein sequences can lack the tags named with them.
